This assay relates to Ctenocephalides felis. Nature of the assay: 2% powder for control of flea infestations on dogs. The note with it: 20 mg/kg. The class given is in vivo. Here is the method:
An experiment was carried out to determine the activity of O,O,O',O'-tetramethyl O,O'-thiodi-p-phenylene phosphorothioate 2% powder for the control of Ctenocephalides felis infestations on dogs. A group of 40 dogs of mixed breeds were obtained from a licensed laboratory animal dealer and housed in individual cages. The 2% powder was formulated from a 25% dust concentrate containing […] O,O,O',O'-tetramethyl O,O'-thiodi-p-phenylene phosphorothioate, 24% celite 209 and 50% acidic kaolin. Talc was used to dilute the concentrate to 2% active ingredient. Each dog was infested with 100 1 day old adult C. felis 72 hours prior to treatment and reinfested on a weekly basis for 6 weeks beginning 7 days after treatment. Each dog was treated with 20 mg. actual drug per kg. body weight formulated as a 2% powder. Five or more dogs were treated with a blank powder and used as infested controls. Table XV summarizes average dead fleas in treated versus average dead fleas in control.

One compound from patent US3968207A, “Method of controlling fleas and ticks on cats and dogs” (priority 1975, dated 1976) can be followed below.

Where “and” joins values, the source holds several entries; their conditions need not be identical. Equal values may be shown once. Further values from the same series stand in other lists.

In the case of `COP(=S)(OC)Oc1ccc(Sc2ccc(OP(=S)(OC)OC)cc2)cc1` [O,O,O',O'-tetramethyl O,O'-thiodi-p-phenylene phosphorothioate], the “No. of Dead Fleas Recovered in 48 Hrs.” value (Trial 1, individual dogs, week 0) was 48 and 29 and 33; the “No. of Dead Fleas Recovered in 48 Hrs.” value (Trial 1, individual dogs, week 1) is 19 and 60 and 46; the “No. of Dead Fleas Recovered in 48 Hrs.” value (Trial 1, individual dogs, week 2) is 37 and 30 and 25 and 33; the “No. of Dead Fleas Recovered in 48 Hrs.” value (Trial 1, individual dogs, week 3) was 39 and 50 and 38; the “No. of Dead Fleas Recovered in 48 Hrs.” value (Trial 1, individual dogs, week 4) was 28 and 32 and 13 and 37; the “No. of Dead Fleas Recovered in 48 Hrs.” value (Trial 1, individual dogs, week 5) was 45 and 19 and 57 and 33 and 10. Further, the “No. of Dead Fleas Recovered in 48 Hrs.” value is 30 and 12 (Trial 1, individual dogs, week 6); 72 and 39 and 54 and 55 and 49 and 78 and 57 and 38 and 42 and 59 and 30 and 48 and 20 and 31 and 25 and 68 and 35 and 10 (Trial 2, individual dogs, week 0); 48 and 44 and 38 and 46 and 49 and 28 and 74 and 32 and 20 and 55 and 33 and 59 and 37 and 39 and 47 (Trial 2, individual dogs, week 1); 34 and 36 and 41 and 43 and 49 and 62 and 39 and 30 and 31 and 75 and 35 and 73 and 55 and 59 and 37 and 60 (Trial 2, individual dogs, week 2); 45 and 41 and 38 and 48 and 47 and 42 and 27 and 35 and 44 and 80 and 28 and 50 and 72 and 37 and 55 (Trial 2, individual dogs, week 3); 35 and 39 and 51 and 34 and 23 and 29 and 50 and 36 and 26 and 7 and 45 and 55 and 42 and 32 and 75 and 111 and 73 (Trial 2, individual dogs, week 4). The “No. of Dead Fleas Recovered in 48 Hrs.” value by setting is: (Trial 2, individual dogs, week 5) 27 and 21 and 45 and 4 and 2 and 28 and 30 and 47 and 11 and 34 and 25 and 52 and 48 and 29 and 50 and 40 and 36; (Trial 2, individual dogs, week 6) 24 and 10 and 16 and 4 and 3 and 20 and 53 and 50 and 7 and 44 and 8 and 18 and 49 and 35 and 27 and 41.
